Laboratory results: article PMC4729829, “BAP1/ASXL1 recruitment and activation for H2A deubiquitination” (Nature Communications, 2016)
Results are given in words; binding and its absence hold for the method and conditions named.

Protein sequences, listed by entry. Tags and fused reporters are not part of them. Residues count along the entry.
UniProt Q92560, residues 1-670: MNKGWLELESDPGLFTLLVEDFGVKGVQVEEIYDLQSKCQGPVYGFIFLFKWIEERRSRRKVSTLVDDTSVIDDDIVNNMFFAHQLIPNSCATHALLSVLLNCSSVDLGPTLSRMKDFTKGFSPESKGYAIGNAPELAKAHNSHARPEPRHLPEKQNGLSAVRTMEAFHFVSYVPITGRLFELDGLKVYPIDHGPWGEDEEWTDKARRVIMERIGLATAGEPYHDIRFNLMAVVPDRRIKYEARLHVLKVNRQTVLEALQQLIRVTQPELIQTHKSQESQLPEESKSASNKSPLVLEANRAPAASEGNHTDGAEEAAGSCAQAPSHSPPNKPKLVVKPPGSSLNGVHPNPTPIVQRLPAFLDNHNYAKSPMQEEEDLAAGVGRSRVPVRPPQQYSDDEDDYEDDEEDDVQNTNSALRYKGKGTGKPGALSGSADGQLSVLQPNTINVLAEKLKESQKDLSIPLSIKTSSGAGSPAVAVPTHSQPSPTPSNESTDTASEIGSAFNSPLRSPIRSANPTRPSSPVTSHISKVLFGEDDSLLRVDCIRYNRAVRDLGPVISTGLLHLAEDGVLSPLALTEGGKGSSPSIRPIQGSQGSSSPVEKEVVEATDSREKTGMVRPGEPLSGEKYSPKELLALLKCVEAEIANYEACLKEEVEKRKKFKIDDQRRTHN
UniProt Q8IXJ9, residues 238-390: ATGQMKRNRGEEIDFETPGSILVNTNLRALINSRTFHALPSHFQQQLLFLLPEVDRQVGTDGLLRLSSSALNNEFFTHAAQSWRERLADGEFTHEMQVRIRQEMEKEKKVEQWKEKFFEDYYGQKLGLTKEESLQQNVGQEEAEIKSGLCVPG

How the values were obtained:
[1] = target: BAP1 1-670 (disrupted ULD domain, lacks the predicted ASXL1^DEU-binding site) (human) (UniProt Q92560); experiment: SEC; gel filtration of BAP1 1-670 with ASXL1^DEU (Supplementary Fig. 1h); both purified
[2] = target: BAP1 1-670 (disrupted ULD domain) (human) (UniProt Q92560); experiment: SEC; S200 5/150 size exclusion chromatography column; fractions on SDS-PAGE; both purified
[3] = target: BAP1 1-670 (disrupted ULD domain, lacks the predicted ASXL1^DEU-binding site) (human) (UniProt Q92560); experiment: condition: 30 μM ASXL1^DEU titrated into 13 μM BAP1 variant; ITC; 30 μM ASXL1^DEU in the syringe titrated (10 or 5 μl injections) into 13 μM BAP1 variant in the cell; 25 °C; 25 mM HEPES pH 7.5, 150 mM NaCl, 10% glycerol, 0.5 mM TCEP; one-site binding model; both purified
[4] = target: ASXL1 DEUBAD domain (aa 238-390) (human) (UniProt Q8IXJ9); experiment: SEC-MALS; SEC-MALLS, miniDawn detector; Superdex S75 10/30 (ASXL1^DEU), Superose 6 10/30 (BAP1) or Superdex S200 10/30 (BAP1/ASXL1^DEU); 10 mM HEPES pH 7.5, 150 mM NaCl, 0.5 mM TCEP; 4 °C; both purified
[5] = target: BAP1 1-670 (disrupted ULD domain) (human) (UniProt Q92560); experiment: condition: 30 μM ASXL1DEU titrated into 13 μM of BAP1 variant; ITC; VP-ITC at 25 °C; 25 mM HEPES pH 7.5, 150 mM NaCl, 10% glycerol, 0.5 mM TCEP; 30 μM ASXL1DEU (syringe) titrated into 13 μM BAP1 variant (cell), 10 or 5 μl injections; one-site binding model; both purified
[6] = target: ASXL1 DEUBAD domain (aa 238-390) (human) (UniProt Q8IXJ9); experiment: SEC-MALS; miniDawn detector in line with Superdex S75 10/30 (ASXL1DEU), Superose 6 10/30 (BAP1) or Superdex S200 10/30 (BAP1/ASXL1DEU); 10 mM HEPES pH 7.5, 150 mM NaCl, 0.5 mM TCEP, 4 °C; molecular weights from the refractive index signal; both purified

Measured: binding

ASXL1 DEUBAD domain (aa 238-390) (from UniProt Q8IXJ9 238-390) (domain or fragment)
no binding: all assays above
